PubChem BioAssay AID743454 – Peter MacCallum Cancer Centre, 2014

- Purpose: 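Genes whose loss kills vorinostat-resistant colon cancer cells under vorinostat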 (primary screen)
- Cell system: human HCT116-VR colon cancer cells, selected for vorinostat resistance
- Reagents: siRNA pool against human genes, 40 nM siRNA pool
- Timing: vorinostat for 24 h, read-out about 72 h after transfection
- Treatment: vorinostat at 2.5 µM final
- Detection: 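Cell viability by CellTiter-Fluor and caspase 3/7 activity by luminescence, each scaled to mock wells per plate, duplicates averaged, then robust z-scored over all plates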
- Direction: viability robust z-score: higher = more viable cells than screen typical; caspase robust z-score: higher = more caspase 3/7 activity than screen typical
- Hit rule: 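Hits are knock-downs in viability class RV1/RV2 or caspase class CA1/CA2, excluding ones that killed cells in the no-drug cell-count arm; hits then retested with single siRNAs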
This is an unselected part of about 18,000 reagents tested. 450 of all reagents (2.5%) were called active. 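Single biological run; no consistent viability z cut-off exists, so the class columns, not z-scores, define the calls.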

Silencing of XTBD1 resulted in: viability hit class no change; caspase hit class no change; viability robust z-score 0.26; caspase robust z-score 0.46; inactive.
After knock-down of PACRGL, the screen gave viability hit class no change; caspase hit class no change; viability robust z-score 0.22; caspase robust z-score 1.96; inactive.
Against PIGA, the entry reads viability hit class no change; caspase hit class no change; viability robust z-score 1.29; caspase robust z-score -0.62; inactive.
ATP2B4 scored viability hit class no change; caspase hit class no change; viability robust z-score 2.11; caspase robust z-score -0.57; inactive.
Knock-down of DLST gave: viability hit class no change; caspase hit class no change; viability robust z-score -0.83; caspase robust z-score 0.45; inactive.
For SAE1 the deposit lists viability hit class no change; caspase hit class no change; viability robust z-score 0.61; caspase robust z-score -0.44; inactive.
Against EPN2, the entry reads viability hit class no change; caspase hit class no change; viability robust z-score 0.34; caspase robust z-score 0.48; inactive.
After knock-down of PPP4R4, the record shows viability hit class RV2 (reduced viability); caspase hit class no change; viability robust z-score -3.54; caspase robust z-score 0.1; active.
Silencing of IFNA6 resulted in: viability hit class no change; caspase hit class no change; viability robust z-score -1.22; caspase robust z-score -0.17; inactive.
After knock-down of PLEKHM1P1, the record shows viability hit class no change; caspase hit class no change; viability robust z-score -0.43; caspase robust z-score 0.22; inactive.
HCRTR2 scored viability hit class no change; caspase hit class no change; viability robust z-score 0.35; caspase robust z-score -0.04; inactive.
Against TRAM2, the entry reads viability hit class no change; caspase hit class no change; viability robust z-score -1.44; caspase robust z-score -0.68; inactive.
LINC03042 scored viability hit class no change; caspase hit class no change; viability robust z-score 1.01; caspase robust z-score -0.18; inactive.
INTS5 showed viability hit class no change; caspase hit class no change; viability robust z-score -0.96; caspase robust z-score 2.3; inactive.
For ACCSL, the values are viability hit class no change; caspase hit class no change; viability robust z-score -0.04; caspase robust z-score 0.91; inactive.
Depletion of MYOT gave: viability hit class no change; caspase hit class no change; viability robust z-score 0.87; caspase robust z-score 0.93; inactive.
With knock-down of ZNHIT3 the results were viability hit class no change; caspase hit class no change; viability robust z-score -1.68; caspase robust z-score 0.79; inactive.
For LY86, the entry reads viability hit class no change; caspase hit class no change; viability robust z-score 1; caspase robust z-score 0.06; inactive.
After knock-down of MS4A7, the record shows viability hit class no change; caspase hit class no change; viability robust z-score -0.28; caspase robust z-score 0.16; inactive.
Silencing of ZNF445 came out at: viability hit class no change; caspase hit class no change; viability robust z-score 0.16; caspase robust z-score 0.69; inactive.
With knock-down of SDC4, the screen gave viability hit class no change; caspase hit class no change; viability robust z-score -1.2; caspase robust z-score 1.75; inactive.
After knock-down of ARMCX2, the record shows viability hit class no change; caspase hit class no change; viability robust z-score 0.34; caspase robust z-score -0.36; inactive.
HAO1 showed viability hit class no change; caspase hit class no change; viability robust z-score -0.59; caspase robust z-score 0.26; inactive.
After knock-down of PDZD11, the screen gave viability hit class no change; caspase hit class no change; viability robust z-score -0.03; caspase robust z-score 2.67; inactive.
For MTNAP1, the entry reads viability hit class no change; caspase hit class no change; viability robust z-score 1.05; caspase robust z-score 1.15; inactive.
Against EPHA5, the entry reads viability hit class no change; caspase hit class no change; viability robust z-score 0.38; caspase robust z-score 0.24; inactive.
For CDIPT, the values are viability hit class no change; caspase hit class no change; viability robust z-score -0.48; caspase robust z-score -0.7; inactive.

Part of the list above, reformatted:
Gene | viability hit class | caspase hit class | viability robust z-score | caspase robust z-score | Call
HAO1 | no change | no change | -0.59 | 0.26 | inactive
PDZD11 | no change | no change | -0.03 | 2.67 | inactive
MTNAP1 | no change | no change | 1.05 | 1.15 | inactive
